Source: US20090306135A1, “STABLE AMORPHOUS FEXOFENADINE HYDROCHLORIDE” (priority 2008, published 2009)

Key:
[1] = during drying at elevated temperature
[2] = up to 2 months and above
Text: X-Ray tube with Cu target anode Divergence slits 1 0, Receiving slit 0.15 mm, Scatter slit 1 0 Power: 40 KV, 100 mA; Scanning speed: 2 degree/minute step: 0.02 degree; Wave length: 1.5406 A; Spray Dryer: PST01

**Q.** With CC(C)(C(=O)O)c1ccc(C(O)CCCN2CCC(C(O)(c3ccccc3)c3ccccc3)CC2)cc1.Cl (racemic) [amorphous fexofenadine hydrochloride, (±)-4-[1 hydroxy-4-[4-(hydroxydiphenylmethyl)-1-piperidinyl]-butyl]-α,α-dimethyl benzeneacetic acid hydrochloride] as the molecule, how does the “stability against thermal degradation” value [1] read?
**A.** The value was “stable against thermal degradation”.

**Q.** What about the “content of 2-[4-(4-{4-[hydroxyl(diphenyl)methyl]piperidin-1-yl}butanoyl)phenyl]-2-methylpropanoic acid on storage” value [2] of the same molecule?
**A.** Its value is “remains constant”.
